Measurements reported in US20200277349A1 (FRAUNHOFER GESELLSCHAFT ZUR F RDERUNG DER ANGEWANDTEN …, published 2020).
No constants are given. Whether binding was seen depends on the method and setting. Some results given as binding are weak or reduced against the parent protein; the word gives no strength. For some assays here: Tags and fused reporters may be left off the sequences shown.

Experiments:
[1] = target: T1, human IL-1R6 extracellular domain-Fc chimera (human) (UniProt Q9HB29); test: plate binding assay on immobilized extracellular domain-Fc chimera (FIG. 3E)
T1 sequence (looked up): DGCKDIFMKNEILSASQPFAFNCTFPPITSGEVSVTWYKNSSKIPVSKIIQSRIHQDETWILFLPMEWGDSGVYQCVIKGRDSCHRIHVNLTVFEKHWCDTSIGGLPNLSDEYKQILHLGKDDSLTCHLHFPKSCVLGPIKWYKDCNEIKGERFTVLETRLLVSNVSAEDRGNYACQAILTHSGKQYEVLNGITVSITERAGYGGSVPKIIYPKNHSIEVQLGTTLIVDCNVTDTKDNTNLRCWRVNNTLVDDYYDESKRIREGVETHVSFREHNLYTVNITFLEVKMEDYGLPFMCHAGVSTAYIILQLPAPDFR

[2] = target: T2, human IL-1RAPL1 extracellular domain-Fc chimera (human) (UniProt Q9NZN1); test: as above
T2 sequence (looked up): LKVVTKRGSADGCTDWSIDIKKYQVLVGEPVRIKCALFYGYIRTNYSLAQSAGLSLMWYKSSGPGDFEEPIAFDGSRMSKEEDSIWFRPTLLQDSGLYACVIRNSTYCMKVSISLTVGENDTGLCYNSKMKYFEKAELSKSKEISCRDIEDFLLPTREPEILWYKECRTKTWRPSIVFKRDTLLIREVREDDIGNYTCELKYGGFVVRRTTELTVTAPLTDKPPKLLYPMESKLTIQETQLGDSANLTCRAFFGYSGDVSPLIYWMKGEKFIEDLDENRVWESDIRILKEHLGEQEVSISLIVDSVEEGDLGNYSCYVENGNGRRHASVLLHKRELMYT

[3] = target: T3, IL-1RAPL1 on human macrophages (human) (UniProt Q9NZN1); test: flow cytometry competition on human macrophages; competitor anti-IL-1RAPL1 staining antibody
T3 sequence (looked up): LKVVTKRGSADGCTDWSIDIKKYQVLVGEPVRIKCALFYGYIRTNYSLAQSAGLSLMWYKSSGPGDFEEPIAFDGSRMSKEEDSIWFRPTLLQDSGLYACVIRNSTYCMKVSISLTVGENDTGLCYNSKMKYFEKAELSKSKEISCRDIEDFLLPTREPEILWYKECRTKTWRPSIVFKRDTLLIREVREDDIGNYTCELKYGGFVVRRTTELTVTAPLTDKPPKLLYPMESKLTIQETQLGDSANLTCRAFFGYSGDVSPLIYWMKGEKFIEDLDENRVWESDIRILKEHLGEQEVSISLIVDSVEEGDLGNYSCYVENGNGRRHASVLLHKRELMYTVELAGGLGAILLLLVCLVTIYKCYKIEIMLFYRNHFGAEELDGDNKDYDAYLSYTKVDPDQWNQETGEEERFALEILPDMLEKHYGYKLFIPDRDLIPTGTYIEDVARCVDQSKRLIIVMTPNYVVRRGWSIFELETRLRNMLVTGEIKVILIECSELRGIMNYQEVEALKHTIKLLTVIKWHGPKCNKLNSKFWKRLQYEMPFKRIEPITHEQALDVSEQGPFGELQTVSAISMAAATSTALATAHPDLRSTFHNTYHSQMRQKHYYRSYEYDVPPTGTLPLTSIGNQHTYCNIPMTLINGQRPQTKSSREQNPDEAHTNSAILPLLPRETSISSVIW

[4] = target: T2, human IL-1RAPL1 extracellular domain-Fc chimera (human); test: plate binding assay: IL-1RAPL1-Fc coated, IL-38 titrated, detected with biotinylated monoclonal IL-38 antibody
[5] = target: T1, human IL-1R6 extracellular domain-Fc chimera (human); test: plate binding assay: IL-1R6-Fc coated, IL-38 titrated, detected with biotinylated monoclonal IL-38 antibody

Measured: binding

B1: recombinant human full length IL-38 (IL-38aa1-152) (ligand)
chain: MCSLPMARYYIIKYADQKALYTRDGQLLVGDPVADNCCAEKICILPNRGLARTKVPIFLGIQGGSRCLACVETEEGPSLQLEDVNIEELYKGGEEATRFTFFQSSSGSAFRLEAAAWPGWFLCGPAEPQQPVQLTKESEPSARTKFYFEQSW
binds: all assays above
